PubChem BioAssay AID1224830 – NIAID, 2016
Screen: 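Regulators of TLR4 signalling towards TNF-alpha in macrophage-like cells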 (primary screen). Cell system: human THP-1 monocytic leukaemia cells, TNF dual-luciferase reporter clone, PMA-differentiated to macrophage-like cells. Reagents: siRNA pool against human genes, 50 nM. Timing: LPS for 4 h, given about 3 days after siRNA transfection. Conditions: bacterial LPS (TLR4 ligand), 10 ng/ml. Measured: 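Ratio of firefly to renilla light, scaled to the plate median and expressed as a robust z-score per replicate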. Direction: TNF reporter robust z-score: higher = stronger TNF reporter response to LPS. Rule for the call: 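Each well counts as active if its z-score is over 2.8 or under -1.5; controls are left without a call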.
The deposit covers about 18,000 reagents; below is an unselected part. About 2,900 of all reagents (16%) were called active. 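Calls are made per well; low scores hint the gene aids the LPS response, high scores that it dampens it.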 Repeated entries: four replicate wells of each siRNA pool. Reagent sequences are not shown.

With KCNH8 (potassium voltage-gated channel subfamily H member 8), what does the deposit list?
TNF reporter robust z-score: 1.2; call: inactive

What did the screen give for KCNH8 (potassium voltage-gated channel subfamily H member 8)?
TNF reporter robust z-score: 5.58; call: active

Which result is listed for KCNH8 (potassium voltage-gated channel subfamily H member 8)?
TNF reporter robust z-score: 2.84; call: active

For KCNH8 (potassium voltage-gated channel subfamily H member 8), how do the results read?
TNF reporter robust z-score: 2.54; call: inactive

What did the screen give for GALE (UDP-galactose-4-epimerase)?
TNF reporter robust z-score: 0.14; call: inactive

For GALE (UDP-galactose-4-epimerase), what was measured?
TNF reporter robust z-score: -0.31; call: inactive

With GALE (UDP-galactose-4-epimerase), what does the deposit list?
TNF reporter robust z-score: 0.61; call: inactive

Which result is listed for GALE (UDP-galactose-4-epimerase)?
TNF reporter robust z-score: 1.07; call: inactive

What did the screen give for KRTAP10-12 (keratin associated protein 10-12)?
TNF reporter robust z-score: -0.97; call: inactive

For KRTAP10-12 (keratin associated protein 10-12), what does the deposit list?
TNF reporter robust z-score: -0.09; call: inactive

What is on record for KRTAP10-12 (keratin associated protein 10-12)?
TNF reporter robust z-score: -0.45; call: inactive

What is on record for KRTAP10-12 (keratin associated protein 10-12)?
TNF reporter robust z-score: -0.21; call: inactive

With FOXN3 (forkhead box N3), what does the deposit list?
TNF reporter robust z-score: -0.13; call: inactive

For FOXN3 (forkhead box N3), how do the results read?
TNF reporter robust z-score: -0.16; call: inactive

With FOXN3 (forkhead box N3), how do the results read?
TNF reporter robust z-score: 0.26; call: inactive

How did the screen score FOXN3 (forkhead box N3)?
TNF reporter robust z-score: -0.11; call: inactive

What did the screen give for STARD7 (StAR related lipid transfer domain containing 7)?
TNF reporter robust z-score: -0.3; call: inactive

How did the screen score STARD7 (StAR related lipid transfer domain containing 7)?
TNF reporter robust z-score: 1.11; call: inactive

For STARD7 (StAR related lipid transfer domain containing 7), how do the results read?
TNF reporter robust z-score: -0.37; call: inactive

With STARD7 (StAR related lipid transfer domain containing 7), how do the results read?
TNF reporter robust z-score: 0.42; call: inactive

For TRIM13 (tripartite motif containing 13), what does the deposit list?
TNF reporter robust z-score: 0.3; call: inactive

With TRIM13 (tripartite motif containing 13), how do the results read?
TNF reporter robust z-score: -0.68; call: inactive

For TRIM13 (tripartite motif containing 13), what does the deposit list?
TNF reporter robust z-score: -0.13; call: inactive

What is on record for TRIM13 (tripartite motif containing 13)?
TNF reporter robust z-score: 0.2; call: inactive

For OR7G1 (olfactory receptor family 7 subfamily G member 1), what was measured?
TNF reporter robust z-score: 0.35; call: inactive

With OR7G1 (olfactory receptor family 7 subfamily G member 1), what does the deposit list?
TNF reporter robust z-score: 0.33; call: inactive

Which result is listed for OR7G1 (olfactory receptor family 7 subfamily G member 1)?
TNF reporter robust z-score: -0.6; call: inactive

For OR7G1 (olfactory receptor family 7 subfamily G member 1), how do the results read?
TNF reporter robust z-score: -0.13; call: inactive

In a second layout: 8 of the entries above.
{"gene symbol":"GALE (UDP-galactose-4-epimerase)","TNF reporter robust z-score":0.14,"call":"inactive"}
{"gene symbol":"GALE (UDP-galactose-4-epimerase)","TNF reporter robust z-score":-0.31,"call":"inactive"}
{"gene symbol":"GALE (UDP-galactose-4-epimerase)","TNF reporter robust z-score":0.61,"call":"inactive"}
{"gene symbol":"GALE (UDP-galactose-4-epimerase)","TNF reporter robust z-score":1.07,"call":"inactive"}
{"gene symbol":"KRTAP10-12 (keratin associated protein 10-12)","TNF reporter robust z-score":-0.97,"call":"inactive"}
{"gene symbol":"KRTAP10-12 (keratin associated protein 10-12)","TNF reporter robust z-score":-0.09,"call":"inactive"}
{"gene symbol":"KRTAP10-12 (keratin associated protein 10-12)","TNF reporter robust z-score":-0.45,"call":"inactive"}
{"gene symbol":"KRTAP10-12 (keratin associated protein 10-12)","TNF reporter robust z-score":-0.21,"call":"inactive"}

The results go on:
What did the screen give for LTK (leukocyte receptor tyrosine kinase)?
TNF reporter robust z-score: -1.1; call: inactive

For LTK (leukocyte receptor tyrosine kinase), what does the deposit list?
TNF reporter robust z-score: -0.34; call: inactive

Which result is listed for LTK (leukocyte receptor tyrosine kinase)?
TNF reporter robust z-score: -0.6; call: inactive

For LTK (leukocyte receptor tyrosine kinase), what was measured?
TNF reporter robust z-score: 0.11; call: inactive

For TMEM243 (transmembrane protein 243), what was measured?
TNF reporter robust z-score: -0.21; call: inactive

What did the screen give for TMEM243 (transmembrane protein 243)?
TNF reporter robust z-score: -0.25; call: inactive

What did the screen give for TMEM243 (transmembrane protein 243)?
TNF reporter robust z-score: -0.45; call: inactive

With TMEM243 (transmembrane protein 243), how do the results read?
TNF reporter robust z-score: 0.44; call: inactive

What is on record for PCMTD1?
TNF reporter robust z-score: -0.73; call: inactive

With PCMTD1, how do the results read?
TNF reporter robust z-score: -0.79; call: inactive

How did the screen score PCMTD1?
TNF reporter robust z-score: -0.57; call: inactive

With PCMTD1, how do the results read?
TNF reporter robust z-score: 0.66; call: inactive

Which result is listed for ANKRD7 (ankyrin repeat domain 7)?
TNF reporter robust z-score: -0.18; call: inactive

Which result is listed for ANKRD7 (ankyrin repeat domain 7)?
TNF reporter robust z-score: 0.3; call: inactive

With ANKRD7 (ankyrin repeat domain 7), how do the results read?
TNF reporter robust z-score: -0.28; call: inactive

With ANKRD7 (ankyrin repeat domain 7), how do the results read?
TNF reporter robust z-score: 0.42; call: inactive

With RPS8 (ribosomal protein S8), how do the results read?
TNF reporter robust z-score: -1.27; call: inactive

With RPS8 (ribosomal protein S8), how do the results read?
TNF reporter robust z-score: -1.18; call: inactive

Which result is listed for RPS8 (ribosomal protein S8)?
TNF reporter robust z-score: -1.41; call: inactive

For TRIM65 (tripartite motif containing 65), what was measured?
TNF reporter robust z-score: -0.39; call: inactive

With TRIM65 (tripartite motif containing 65), what does the deposit list?
TNF reporter robust z-score: -1.07; call: inactive

With TRIM65 (tripartite motif containing 65), how do the results read?
TNF reporter robust z-score: -0.88; call: inactive

With TRIM65 (tripartite motif containing 65), what does the deposit list?
TNF reporter robust z-score: -1.13; call: inactive

What did the screen give for SEPHS1 (selenophosphate synthetase 1)?
TNF reporter robust z-score: 0.17; call: inactive

What did the screen give for SEPHS1 (selenophosphate synthetase 1)?
TNF reporter robust z-score: 0; call: inactive

What did the screen give for SEPHS1 (selenophosphate synthetase 1)?
TNF reporter robust z-score: 0.34; call: inactive

With SEPHS1 (selenophosphate synthetase 1), how do the results read?
TNF reporter robust z-score: 0.06; call: inactive

With TOMM20 (translocase of outer mitochondrial membrane 20), what was measured?
TNF reporter robust z-score: -0.69; call: inactive

With TOMM20 (translocase of outer mitochondrial membrane 20), what does the deposit list?
TNF reporter robust z-score: 1.77; call: inactive

How did the screen score TOMM20 (translocase of outer mitochondrial membrane 20)?
TNF reporter robust z-score: 0.47; call: inactive

What did the screen give for TOMM20 (translocase of outer mitochondrial membrane 20)?
TNF reporter robust z-score: 0.39; call: inactive

What did the screen give for ADCY10 (adenylate cyclase 10)?
TNF reporter robust z-score: 0.01; call: inactive

For ADCY10 (adenylate cyclase 10), what was measured?
TNF reporter robust z-score: 1.46; call: inactive

With ADCY10 (adenylate cyclase 10), how do the results read?
TNF reporter robust z-score: 0.62; call: inactive

Which result is listed for ADCY10 (adenylate cyclase 10)?
TNF reporter robust z-score: 2.31; call: inactive
